Source: the supplement of paper PMC6078165
Values are relative to the signal before dosing, not to a vehicle control; the signal also falls without drug.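 Fibroblast labels name human fibroblasts: mostly primary ones from tissues such as uterus (C12385, HUF), lung (H6013), bone (Hs27A), adrenal (HADF) and skin (WS1), plus mammary HMF and breast cancer-associated Hs343T. The cancer cells are basal-like or mesenchymal-like triple-negative breast cancer lines. The paper calls a changed response a hit when it shifts by more than 3x the replicate standard deviation. The tissue of the other fibroblasts is not given here.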

Tested on: BT20
Test: relative JC-1 red fluorescence (viability) vs pre-drug, coculture with fibroblast (fraction); higher = more viable cancer cells
Method: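 JC-1 labelled TNBC cells cocultured 1:1 (1,500 cells each) with CellTrace Violet stained primary or stromal fibroblasts in 384-well plates in FluoroBrite medium, treated with one of 42 anticancer drugs at 0.1, 1, 10 or 100 uM. JC-1 red fluorescence (mitochondrial integrity in cancer cells only) was read by plate reader every 8 h for 72 h. Values are normalised to each well's pre-drug value. The stock of one drug was tenfold lower, so its dose labels may be too high.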

CC/C(=C(\c1ccccc1)c1ccc(OCCN(C)C)cc1)c1ccccc1 [Tamoxifen]
Settings | relative JC-1 red fluorescence
1 µM, 40 h, coculture fibroblast: HHSteC | 0.777
1 µM, 40 h, coculture fibroblast: HMF | 0.649
1 µM, 40 h, coculture fibroblast: HPFa | 0.759
1 µM, 40 h, coculture fibroblast: HUF | 0.69
1 µM, 40 h, coculture fibroblast: Hs5 | 0.792
1 µM, 40 h, coculture fibroblast: Hs27A | 0.8526
1 µM, 40 h, coculture fibroblast: Hs343T | 0.717
1 µM, 40 h, coculture fibroblast: WS1 | 0.576
1 µM, 48 h, coculture fibroblast: C12385 | 0.629
1 µM, 48 h, coculture fibroblast: H6013 | 0.759
1 µM, 48 h, coculture fibroblast: H6019 | 0.763
1 µM, 48 h, coculture fibroblast: H6076 | 0.762
1 µM, 48 h, coculture fibroblast: H6231 | 0.631
1 µM, 48 h, coculture fibroblast: HADF | 0.822
1 µM, 48 h, coculture fibroblast: HCFa | 0.738
1 µM, 48 h, coculture fibroblast: HCPF | 0.6897
1 µM, 48 h, coculture fibroblast: HHSteC | 0.751
1 µM, 48 h, coculture fibroblast: HMF | 0.616
1 µM, 48 h, coculture fibroblast: HPFa | 0.7155
1 µM, 48 h, coculture fibroblast: HUF | 0.654
1 µM, 48 h, coculture fibroblast: Hs5 | 0.7448
1 µM, 48 h, coculture fibroblast: Hs27A | 0.819
1 µM, 48 h, coculture fibroblast: Hs343T | 0.686
1 µM, 48 h, coculture fibroblast: WS1 | 0.548
1 µM, 56 h, coculture fibroblast: C12385 | 0.599
1 µM, 56 h, coculture fibroblast: H6013 | 0.76
1 µM, 56 h, coculture fibroblast: H6019 | 0.731
1 µM, 56 h, coculture fibroblast: H6076 | 0.75
1 µM, 56 h, coculture fibroblast: H6231 | 0.601
1 µM, 56 h, coculture fibroblast: HADF | 0.811
1 µM, 56 h, coculture fibroblast: HCFa | 0.71
1 µM, 56 h, coculture fibroblast: HCPF | 0.652
1 µM, 56 h, coculture fibroblast: HHSteC | 0.731
1 µM, 56 h, coculture fibroblast: HMF | 0.579
1 µM, 56 h, coculture fibroblast: HPFa | 0.685
1 µM, 56 h, coculture fibroblast: HUF | 0.636
1 µM, 56 h, coculture fibroblast: Hs5 | 0.716
1 µM, 56 h, coculture fibroblast: Hs27A | 0.79382
1 µM, 56 h, coculture fibroblast: Hs343T | 0.639
1 µM, 56 h, coculture fibroblast: WS1 | 0.521
1 µM, 64 h, coculture fibroblast: C12385 | 0.582
1 µM, 64 h, coculture fibroblast: H6013 | 0.738
1 µM, 64 h, coculture fibroblast: H6019 | 0.706
1 µM, 64 h, coculture fibroblast: H6076 | 0.737
1 µM, 64 h, coculture fibroblast: H6231 | 0.575
1 µM, 64 h, coculture fibroblast: HADF | 0.802
1 µM, 64 h, coculture fibroblast: HCFa | 0.685
1 µM, 64 h, coculture fibroblast: HCPF | 0.6283
1 µM, 64 h, coculture fibroblast: HHSteC | 0.708
1 µM, 64 h, coculture fibroblast: HMF | 0.55
1 µM, 64 h, coculture fibroblast: HPFa | 0.6428
1 µM, 64 h, coculture fibroblast: HUF | 0.615
1 µM, 64 h, coculture fibroblast: Hs5 | 0.687
1 µM, 64 h, coculture fibroblast: Hs27A | 0.7665
1 µM, 64 h, coculture fibroblast: Hs343T | 0.626
1 µM, 64 h, coculture fibroblast: WS1 | 0.498
1 µM, 72 h, coculture fibroblast: C12385 | 0.558
1 µM, 72 h, coculture fibroblast: H6013 | 0.717
1 µM, 72 h, coculture fibroblast: H6019 | 0.687
1 µM, 72 h, coculture fibroblast: H6076 | 0.729
1 µM, 72 h, coculture fibroblast: H6231 | 0.547
1 µM, 72 h, coculture fibroblast: HADF | 0.774
1 µM, 72 h, coculture fibroblast: HCFa | 0.645
1 µM, 72 h, coculture fibroblast: HCPF | 0.5961
1 µM, 72 h, coculture fibroblast: HHSteC | 0.676
1 µM, 72 h, coculture fibroblast: HMF | 0.5162
1 µM, 72 h, coculture fibroblast: HPFa | 0.596
1 µM, 72 h, coculture fibroblast: HUF | 0.598
1 µM, 72 h, coculture fibroblast: Hs5 | 0.656
1 µM, 72 h, coculture fibroblast: Hs27A | 0.71289
1 µM, 72 h, coculture fibroblast: Hs343T | 0.601
1 µM, 72 h, coculture fibroblast: WS1 | 0.479
10 µM, 8 h, coculture fibroblast: C12385 | 0.889
10 µM, 8 h, coculture fibroblast: H6013 | 0.971
10 µM, 8 h, coculture fibroblast: H6019 | 0.89
10 µM, 8 h, coculture fibroblast: H6076 | 0.744
10 µM, 8 h, coculture fibroblast: H6231 | 0.788
10 µM, 8 h, coculture fibroblast: HADF | 0.859
10 µM, 8 h, coculture fibroblast: HCFa | 0.869
10 µM, 8 h, coculture fibroblast: HCPF | 0.836
10 µM, 8 h, coculture fibroblast: HHSteC | 0.95
10 µM, 8 h, coculture fibroblast: HMF | 0.834
10 µM, 8 h, coculture fibroblast: HPFa | 0.9308
10 µM, 8 h, coculture fibroblast: HUF | 0.87964
10 µM, 8 h, coculture fibroblast: Hs5 | 0.899
10 µM, 8 h, coculture fibroblast: Hs27A | 0.737
10 µM, 8 h, coculture fibroblast: Hs343T | 0.78
10 µM, 8 h, coculture fibroblast: WS1 | 0.868
10 µM, 16 h, coculture fibroblast: C12385 | 0.836
10 µM, 16 h, coculture fibroblast: H6013 | 0.9424
10 µM, 16 h, coculture fibroblast: H6019 | 0.877
10 µM, 16 h, coculture fibroblast: H6076 | 0.9831
10 µM, 16 h, coculture fibroblast: H6231 | 0.855
10 µM, 16 h, coculture fibroblast: HADF | 0.968
10 µM, 16 h, coculture fibroblast: HCFa | 0.796
10 µM, 16 h, coculture fibroblast: HCPF | 0.9729
10 µM, 16 h, coculture fibroblast: HHSteC | 0.919
10 µM, 16 h, coculture fibroblast: HMF | 0.813
10 µM, 16 h, coculture fibroblast: HPFa | 0.8553
10 µM, 16 h, coculture fibroblast: HUF | 0.828
10 µM, 16 h, coculture fibroblast: Hs5 | 0.832
10 µM, 16 h, coculture fibroblast: Hs27A | 0.799
10 µM, 16 h, coculture fibroblast: Hs343T | 0.884
10 µM, 16 h, coculture fibroblast: WS1 | 0.818
10 µM, 24 h, coculture fibroblast: C12385 | 0.796
10 µM, 24 h, coculture fibroblast: H6013 | 0.901
10 µM, 24 h, coculture fibroblast: H6019 | 0.85
10 µM, 24 h, coculture fibroblast: H6076 | 0.902
